In the supplement of paper PMC3334620:
The full ranking holds about 33,000 sequences; the median of “E-score (-0.5 to 0.5)” is about -0.016, and the highest 2% start at about 0.3. The list shows a part of the results.

Biological target: T1, Yer184c (UniProt P39961)
T1 sequence: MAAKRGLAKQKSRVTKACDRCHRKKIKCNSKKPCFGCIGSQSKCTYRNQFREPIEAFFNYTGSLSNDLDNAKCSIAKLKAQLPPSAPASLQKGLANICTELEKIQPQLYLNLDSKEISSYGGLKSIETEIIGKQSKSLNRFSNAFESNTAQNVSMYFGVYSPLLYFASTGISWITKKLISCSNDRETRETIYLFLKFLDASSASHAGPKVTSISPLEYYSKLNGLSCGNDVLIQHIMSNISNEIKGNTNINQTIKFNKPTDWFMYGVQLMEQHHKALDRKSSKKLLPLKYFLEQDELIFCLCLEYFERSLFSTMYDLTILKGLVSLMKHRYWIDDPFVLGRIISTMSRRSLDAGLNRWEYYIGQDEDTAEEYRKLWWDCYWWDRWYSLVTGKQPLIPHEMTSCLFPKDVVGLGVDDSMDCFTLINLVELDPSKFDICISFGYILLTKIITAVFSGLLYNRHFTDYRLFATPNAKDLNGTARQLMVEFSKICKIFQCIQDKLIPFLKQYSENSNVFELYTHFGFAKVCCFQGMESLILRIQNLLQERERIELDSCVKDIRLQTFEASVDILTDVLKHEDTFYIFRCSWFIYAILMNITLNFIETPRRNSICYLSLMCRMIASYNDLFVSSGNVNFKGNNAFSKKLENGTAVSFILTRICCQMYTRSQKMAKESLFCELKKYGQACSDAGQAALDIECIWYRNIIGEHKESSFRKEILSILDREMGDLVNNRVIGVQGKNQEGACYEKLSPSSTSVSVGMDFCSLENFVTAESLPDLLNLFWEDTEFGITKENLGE
Assay: PBM E-score (8-mer binding enrichment) (E-score (-0.5 to 0.5)); higher = stronger / more preferred TF binding
Conditions: protein concentration: 100 nM; construct: GST-full length
Method in brief: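 PURExpress in vitro transcription/translation supplied GST-tagged yeast transcription factors, either full-length or DNA-binding domain. Applied at about 100-200 nM to universal all-10-mer Agilent arrays double-stranded by primer extension, the bound protein was detected with fluorescent anti-GST. E-scores, modified Wilcoxon-Mann-Whitney statistics, were given by the Universal PBM Analysis Suite to ungapped eight-base words pooled with their reverse complements after masliner normalisation.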

Row | Sequence | PBM E-score
1 | AGCGATAT | 0.054
2 | CAAAATAC | 0.142
3 | CCAATTGA | -0.0725
4 | ATCACCTG | -0.283
5 | GACCCAAA | -0.0393
6 | CGCCACCC | -0.266
7 | GGCAAGAC | -0.0949
8 | TAAGTGAA | 0.0657
9 | CAAAGAAC | 0.151
10 | CCATCAGA | -0.122
11 | ACCTCAAC | -0.027
12 | GTATAGAA | 0.0035
13 | AGGATCAC | -0.179
14 | CCCTCAAG | -0.297
15 | CTCGGTGA | 0.171
16 | CTGACGTA | -0.0533
17 | CTAGCGTC | -0.155
18 | ACTGTATA | 0.0749
19 | AGTGATCG | -0.12
20 | ATGAACGG | 0.0226
21 | CGGTTCAG | 0.105
22 | CAGAAATG | 0.0134

From entry 19 up to 20, as listed above:
Row | Sequence | PBM E-score
19 | AGTGATCG | -0.12
20 | ATGAACGG | 0.0226

Additional records:

Row | Sequence | PBM E-score
23 | GGGTGAGA | -0.217
24 | CGACTCTA | -0.149
25 | CCTACAAG | -0.0682
26 | GAGAGATA | 0.0351
27 | ATGATAGA | 0.0813
28 | CACCACAG | -0.0222
29 | CCCTGACC | -0.0998
30 | ACCAAACA | 0.175
31 | ACAGCCCC | -0.262
32 | GCGCAGAC | 0.0537
33 | CTCCCGAC | 0.00724
34 | AAGGCTTC | -0.0592
35 | ACGCGATG | 0.0181
36 | CCTTTCAA | 0.00713
37 | CCAGAAGA | -0.0993
38 | GGACAGTA | 0.203
39 | CACCTGAA | 0.0307
40 | CTGCTTTA | 0.115
41 | TCGGTTCA | 0.148
42 | CACCTATC | -0.0589
43 | CTACCGGA | 0.129
44 | CGGACTTC | 0.125

Reformatted field by field: part of the list above
CCTTTCAA
  PBM E-score: 0.00713
CCAGAAGA
  PBM E-score: -0.0993
GGACAGTA
  PBM E-score: 0.203

Following part:

Row | Sequence | PBM E-score
45 | TAAAATAA | 0.231
46 | GCTCGACC | -0.0716
47 | ACAGTAAT | 0.056
48 | AACGAGCG | -0.0126
49 | AAGTCGCG | 0.0796
50 | ATTCTGCG | -0.00744
51 | AATCTGGC | -0.0672
52 | GATGCTCA | -0.0696
53 | ACGGCGAA | 0.268
54 | CATGAAAC | -0.0106
55 | ATCTGTAC | 0.0648
56 | TACGTCCA | -0.164
57 | CCCTGGTA | -0.265
58 | GTCGACGA | 0.032
59 | CAACCTAA | -0.0431
60 | GAAAGGCA | 0.212
61 | GGAGTGGA | -0.142
62 | CTGGTGCC | -0.198
63 | ATACCATA | 0.0874
64 | TGGACGAA | -0.0388
65 | ACGCCCGT | -0.0275
66 | CGTTGAGC | 0.0226

Row | Sequence | PBM E-score
67 | AAATAACT | 0.157
68 | CGACACCG | 0.0884
69 | AGCTATGG | -0.148
70 | CATTAAGG | 0.0365
71 | ACCCCCAT | -0.326
72 | ATATGTCC | 0.15
73 | CTTCCTAA | 0.0375
74 | CCGCACTA | 0.157
75 | CGTGGGAG | -0.105
76 | CCGAACCC | 0.0527
77 | TAATCCAA | 0.0954
78 | CCCCAAAC | -0.273
79 | ACTCGAAG | -0.0946
80 | CCCTCTCA | -0.405
81 | CCCGAGTA | 0.0836
82 | ACTCTGTC | -0.139
83 | GCCACGAA | -0.16
84 | ATACTTTC | 0.171
85 | CTTGATAA | 0.143
86 | GTCAGCAC | -0.0139
